This passage reports binding results from paper PMC4936752.

By UniProt entry, the sequences of proteins in these tests, tags left out.
UniProt P40763: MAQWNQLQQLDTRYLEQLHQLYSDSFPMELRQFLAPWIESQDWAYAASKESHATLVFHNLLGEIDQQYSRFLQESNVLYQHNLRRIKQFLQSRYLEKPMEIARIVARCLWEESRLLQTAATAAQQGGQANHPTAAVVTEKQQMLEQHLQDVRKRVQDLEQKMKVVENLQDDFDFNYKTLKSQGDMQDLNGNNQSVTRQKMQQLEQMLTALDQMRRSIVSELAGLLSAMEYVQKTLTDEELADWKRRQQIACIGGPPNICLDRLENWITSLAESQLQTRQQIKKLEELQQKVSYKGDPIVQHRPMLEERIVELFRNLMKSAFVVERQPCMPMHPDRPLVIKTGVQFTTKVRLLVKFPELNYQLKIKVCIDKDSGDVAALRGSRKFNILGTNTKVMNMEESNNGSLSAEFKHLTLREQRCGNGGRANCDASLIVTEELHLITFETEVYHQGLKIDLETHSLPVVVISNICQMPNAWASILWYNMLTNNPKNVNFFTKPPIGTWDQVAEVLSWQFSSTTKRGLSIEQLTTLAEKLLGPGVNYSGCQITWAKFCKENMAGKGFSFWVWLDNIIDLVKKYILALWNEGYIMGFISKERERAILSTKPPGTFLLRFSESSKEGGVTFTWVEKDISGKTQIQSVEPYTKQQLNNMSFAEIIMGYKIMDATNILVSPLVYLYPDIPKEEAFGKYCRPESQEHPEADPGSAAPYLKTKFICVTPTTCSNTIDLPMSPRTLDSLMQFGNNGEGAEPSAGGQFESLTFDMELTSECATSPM

The assay deals with T1, mCherry-HA-IE1 (wild-type) fusion protein (human cytomegalovirus (hCMV), strain Towne) (UniProt P03169).
T1 sequence: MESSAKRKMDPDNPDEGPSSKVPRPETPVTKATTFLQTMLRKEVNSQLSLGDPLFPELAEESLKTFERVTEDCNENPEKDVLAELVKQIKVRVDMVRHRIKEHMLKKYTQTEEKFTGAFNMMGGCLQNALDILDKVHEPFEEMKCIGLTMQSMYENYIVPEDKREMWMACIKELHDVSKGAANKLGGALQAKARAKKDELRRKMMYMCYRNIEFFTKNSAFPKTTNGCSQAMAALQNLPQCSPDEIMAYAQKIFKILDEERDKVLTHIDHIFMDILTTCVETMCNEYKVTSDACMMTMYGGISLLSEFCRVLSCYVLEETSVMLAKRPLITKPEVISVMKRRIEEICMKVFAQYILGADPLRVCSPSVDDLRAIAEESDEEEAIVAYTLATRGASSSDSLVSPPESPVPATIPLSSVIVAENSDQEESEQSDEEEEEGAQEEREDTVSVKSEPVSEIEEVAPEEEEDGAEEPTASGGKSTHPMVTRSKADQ
Put plainly: co-IP; plasmid-transfected 293T cells, 48 h post transfection, no formaldehyde cross-linking; CoIP lysis buffer (50 mM Tris-HCl pH 8.0, 150 mM NaCl, 10% glycerol, 0.5% Triton X-100); anti-HA magnetic beads 2 h at 4°C; immunoblot for STAT3α and HA-tagged proteins.

Results are given in words; binding and its absence hold for the method and conditions named. In cells and extracts the contact can be indirect. Some entries that bind do so weakly or less than the wild type. Tags and fused reporters may be left off the sequences shown.

“STAT3α, endogenous in 293T cells (from UniProt P40763 1-770)”: the binding result is reported as “binds”.
